Data published in PMC10907978.
Results are given in words; binding and its absence hold for the method and conditions named. In cells and extracts the contact can be indirect. Some entries that bind do so weakly or less than the wild type.

Biological target: HIF1α (hypoxia inducible factor-1 alpha), endogenous (human (endogenous in HepG2 and PLC/PRF/5)) (UniProt Q16665)
Test: co-IP; HCC cells transfected with control or Flag-CDK5 plasmids (dose series); endogenous HIF1α pulled down, western blot

Flag-CDK5 (cyclin dependent kinase 5) (from UniProt Q00535 1-292) (enzyme)
binding: binds
